The supplement of paper PMC9454738
Where a name gives a salt, the structure may show the parent alone. ± gives the standard deviation of the averaged measurements. This is one part of the list. Single values are uncertain here, since repeats match poorly.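 Assays used MDA-MB-231 triple-negative breast cancer cells and their brain-metastatic line MDA-MB-231BRM, stably carrying empty vector, full-length GLI1 or truncated tGLI1. After 48 h, viability was read with CellTiter-Blue and normalized to 1% DMSO vehicle. tGLI1 selectivity meant viability fell 20% more in tGLI1 cells than in vector and GLI1 cells.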

Tests used:
Experiment in all cases: cell viability relative to vehicle (DMSO) control (fraction); higher = more viable cells (less growth inhibition)
Conditions in all cases: treatment time 48 h
MDA-MB-231 GLI1 = tested on: MDA-MB-231 GLI1
MDA-MB-231 Vector = tested on: MDA-MB-231 Vector
MDA-MB-231 tGLI1 = tested on: MDA-MB-231 tGLI1
MDA-MB-231BRM GLI1 = tested on: MDA-MB-231BRM GLI1
MDA-MB-231BRM Vector = tested on: MDA-MB-231BRM Vector
MDA-MB-231BRM tGLI1 = tested on: MDA-MB-231BRM tGLI1

Structure (SMILES) | cell viability (MDA-MB-231 GLI1; 0.05 µM) | cell viability (MDA-MB-231 GLI1; 0.5 µM) | cell viability (MDA-MB-231 GLI1; 5 µM) | cell viability (MDA-MB-231 Vector; 0.05 µM) | cell viability (MDA-MB-231 Vector; 0.5 µM) | cell viability (MDA-MB-231 Vector; 5 µM) | cell viability (MDA-MB-231 tGLI1; 0.05 µM) | cell viability (MDA-MB-231 tGLI1; 0.5 µM) | cell viability (MDA-MB-231 tGLI1; 5 µM) | cell viability (MDA-MB-231BRM GLI1; 0.05 µM) | cell viability (MDA-MB-231BRM GLI1; 0.5 µM) | cell viability (MDA-MB-231BRM GLI1; 5 µM) | cell viability (MDA-MB-231BRM Vector; 0.05 µM) | cell viability (MDA-MB-231BRM Vector; 0.5 µM) | cell viability (MDA-MB-231BRM Vector; 5 µM) | cell viability (MDA-MB-231BRM tGLI1; 0.05 µM) | cell viability (MDA-MB-231BRM tGLI1; 0.5 µM) | cell viability (MDA-MB-231BRM tGLI1; 5 µM)
CNC(=O)c1cc(Oc2ccc(NC(=O)Nc3ccc(Cl)c(C(F)(F)F)c3)cc2)ccn1 [Sorafenib Tosylate] | 1.05 | 1.11 | 0.968 | 1.15 | 0.823 | 0.637 | 1.05 | 1.11 | 0.604 | 0.923 | 0.983 | 0.919 | 0.943 | 0.935 | 0.917 | 0.948 | 0.924 | 0.906
COc1cccc(-c2cc(=O)c3ccccc3o2)c1N | 1.36 | 1.74 | 1.64 | 1.46 | 1.21 | 1.15 | 1.3 | 1.57 | 1.22 | 1 | 1.01 | 1.02 | 1.06 | 0.954 | 0.994 | 0.989 | 1.02 | 0.969
C[C@@H]1CN(CC(=O)Nc2ccc3c(c2)Cc2cccc(-c4cc(=O)cc(N5CCOCC5)o4)c2S3)C[C@H](C)O1 | 1.2 | 1.1 | 0.828 | 1.52 | 1.05 | 0.606 | 1.01 | 1.13 | 0.823 | 1.08 | 0.494 | 0.605 | 0.592 | 0.858 | 0.613 | 0.926 | 1.03 | 0.631
O=c1cc(-c2cccc3c2Sc2ccccc2S3)oc(N2CCOCC2)c1 | 1.44 | 1.74 | 1.04 | 1.39 | 1.27 | 0.849 | 1.2 | 1.39 | 0.987 | 0.953 | 1.01 | 0.908 | 0.7 | 0.905 | 0.888 | 0.949 | 0.936 | 0.957
Cc1cc(CS(=O)(=O)c2ccccc2)cc(OCc2ccc(CN3CCC[C@@H]3CO)cc2)c1 | 1.42 | 1.92 | 1.54 | 1.5 | 1.41 | 1.62 | 1.51 | 1.53 | 1.63 | 1.05 | 0.978 | 0.938 | 1.13 | 1.13 | 0.991 | 0.97 | 0.991 | 0.959
Nc1ncn([C@H]2C[C@H](O)[C@@H](CO)O2)c(=O)n1 [Decitabine] | 1.05 | 0.922 | 0.822 | 0.768 | 1.2 | 0.837 | 0.998 | 0.918 | 0.841 | 1 | 0.974 | 0.923 | 1.07 | 0.996 | 0.985 | 1.09 | 1.02 | 0.995
NC(=O)Nc1sc(-c2ccc(F)cc2)cc1C(N)=O | 1.2 | 1.25 | 0.779 | 1.16 | 1.19 | 0.938 | 1.17 | 0.623 | 0.777 | 1 | 1.06 | 0.914 | 0.929 | 1.04 | 1 | 1.02 | 1.06 | 0.934
C#Cc1cccc(Nc2ncnc3cc(OCCOC)c(OCCO)cc23)c1 | 1.19 | 1.18 | 0.952 | 1.37 | 1.03 | 0.817 | 1.08 | 1.21 | 0.902 | 1.14 | 1.11 | 0.875 | 0.693 | 0.978 | 0.923 | 0.898 | 1.12 | 0.865
C=CC(=O)Nc1cccc(Nc2nc(Nc3ccc(OCCOC)cc3)ncc2F)c1 | 1.18 | 1.64 | 0.638 | 1.4 | 1.51 | 0.71 | 1.56 | 1.36 | 0.77 | 1 | 0.919 | 0.778 | 1.12 | 1.02 | 0.824 | 0.936 | 0.924 | 0.792
Cc1cc(C(=O)NOCCO)c(Nc2ccc(I)cc2F)n(C)c1=O | 0.751 | 0.305 | 0.803 | 0.862 | 0.533 | 0.603 | 0.68 | 0.624 | 0.737 | 1.25 | 1.22 | 0.923 | 1.27 | 1.07 | 1.05 | 0.619 | 1.27 | 0.876
Cc1cnc(Nc2ccc(N3CCN(C)CC3)cc2)nc1Nc1cccc(S(=O)(=O)NC(C)(C)C)c1 | 1.3 | 1.68 | 0.173 | 1.35 | 0.998 | 0.331 | 1.41 | 0.821 | 0.181 | 0.994 | 0.967 | 0.447 | 1.08 | 0.945 | 0.436 | 1.06 | 1.04 | 0.385
CCOc1cc(N2CCC(O)CC2)ccc1Nc1ncc2c(n1)N(C)c1ccccc1C(=O)N2C | 2.16 | 3.08 | 0.917 | 1.25 | 1.31 | 0.6 | 1.35 | 1.44 | 0.72 | 0.884 | 0.697 | 0.65 | 0.886 | 0.735 | 0.704 | 1.16 | 1.02 | 1
COc1ccc(-c2ccc3cc(C(=O)O)ccc3c2)cc1C12CC3CC(CC(C3)C1)C2 [Adapalene] | 1.29 | 1.08 | 0.976 | 0.917 | 1.83 | 0.576 | 1.19 | 1.2 | 0.758 | 1.01 | 0.93 | 0.843 | 1.01 | 0.884 | 0.964 | 0.973 | 0.998 | 0.996
O=C(Nc1cccc(Nc2ncc(Br)c(NCCc3cnc[nH]3)n2)c1)N1CCCC1 | 1.24 | 1.24 | 0.842 | 1.7 | 1.15 | 0.811 | 1.25 | 1.1 | 0.783 | 1.19 | 1.02 | 0.851 | 1.18 | 1.02 | 0.82 | 0.992 | 1.06 | 0.714
CS(=O)(=O)N1CCN(Cc2cc3nc(-c4cccc5[nH]ncc45)nc(N4CCOCC4)c3s2)CC1 | 0.999 | 1.27 | 0.277 | 0.784 | 0.774 | 0.301 | 0.739 | 0.923 | 0.434 | 0.889 | 0.796 | 0.687 | 0.842 | 0.798 | 0.524 | 0.982 | 0.799 | 0.472
O=C(Nc1ccc(-c2ccnc(Nc3ccc(N4CCOCC4)cc3)n2)cc1)C1CCCN1 (stereo unspecified) | 1.31 | 1.82 | 1.12 | 1.42 | 1.48 | 1.45 | 1.34 | 1.49 | 1.5 | 1.01 | 0.95 | 0.998 | 0.998 | 1.04 | 1.02 | 1.01 | 1.03 | 1.01
O=C(NC1CCNCC1)c1n[nH]cc1NC(=O)c1c(Cl)cccc1Cl | 1.12 | 0.211 | 0.23 | 1.5 | 0.262 | 0.186 | 0.487 | 0.207 | 0.185 | 0.718 | 1.17 | 1.02 | 1.18 | 0.948 | 0.621 | 1.13 | 1.04 | 0.92
C[C@H]1O[C@H](O[C@H]2[C@H](O)[C@@H](O)[C@@H](O[C@H]3[C@H](O)[C@@H](O)C(O)O[C@@H]3CO)O[C@@H]2CO)[C@H](O)[C@@H](O)[C@@H]1N[C@H]1C=C(CO)[C@@H](O)[C@H](O)[C@H]1O (stereo partly specified) [Acarbose] | 1.19 | 1.07 | 1.01 | 1.17 | 0.913 | 1 | 1 | 1.01 | 0.952 | 1.01 | 1.02 | 0.992 | 1.05 | 1.01 | 0.984 | 1.05 | 1.04 | 1.01
Cc1ccc(Nc2nccc(N(C)c3ccc4c(C)n(C)nc4c3)n2)cc1S(N)(=O)=O [Pazopanib] | 0.664 ± 0.98 | 1.19 ± 0.51 | 0.82 ± 0.054 | 1.28 ± 0.14 | 1.22 ± 0.37 | 0.983 ± 0.14 | 1.33 ± 0.037 | 1.09 ± 0.38 | 1.06 ± 0.013 | 1.02 ± 0.016 | 0.96 ± 0.061 | 0.95 ± 0.11 | 1.03 ± 0.11 | 0.999 ± 0.016 | 0.973 ± 0.058 | 0.9593 ± 0.0033 | 0.976 ± 0.045 | 0.949 ± 0.1
Cc1nc(Nc2ncc(C(=O)Nc3c(C)cccc3Cl)s2)cc(N2CCN(CCO)CC2)n1 [Dasatinib] | 0.582 | 0.592 | 0.423 | 0.561 | 0.481 | 0.326 | 0.474 | 0.587 | 0.26 | 0.833 | 0.774 | 0.834 | 0.899 | 0.768 | 0.808 | 0.725 | 0.721 | 0.731
NC(=O)c1ncn([C@@H]2O[C@H](CO)[C@@H](O)[C@H]2O)c1N [Acadesine] | 1.17 ± 0.19 | 1.21 ± 0.13 | 1.33 ± 0.39 | 1.37 ± 0.7 | 1.21 ± 0.025 | 1.33 ± 0.16 | 1.222 ± 0.0056 | 1.25 ± 0.11 | 1.24 ± 0.11 | 1.09 ± 0.16 | 1.1 ± 0.13 | 1.01 ± 0.053 | 1.06 ± 0.065 | 0.866 ± 0.21 | 1.1 ± 0.018 | 0.892 ± 0.09 | 1.13 ± 0.032 | 0.996 ± 0.024
O=C(c1cccc(Cl)c1F)N1CCN(Cc2cccc(Nc3nccs3)n2)CC1 | 0.952 | 1.2 | 0.674 | 1.09 | 1.13 | 0.777 | 0.913 | 1.21 | 0.76 | 0.991 | 0.988 | 0.971 | 1.02 | 1.12 | 0.997 | 1.04 | 1.02 | 0.953

Limited to cell viability (MDA-MB-231 tGLI1; 0.05 µM) and cell viability (MDA-MB-231BRM Vector; 0.5 µM), for 2 of the compounds above:
Structure (SMILES) | cell viability (MDA-MB-231 tGLI1; 0.05 µM) | cell viability (MDA-MB-231BRM Vector; 0.5 µM)
NC(=O)c1ncn([C@@H]2O[C@H](CO)[C@@H](O)[C@H]2O)c1N [Acadesine] | 1.222 ± 0.0056 | 0.866 ± 0.21
O=C(c1cccc(Cl)c1F)N1CCN(Cc2cccc(Nc3nccs3)n2)CC1 | 0.913 | 1.12
